Several values for one entry are separate records, joined by “and”; a condition that tells them apart may be missing. Equal values may be shown once. At least one read-out could not be matched to a standard name with certainty.
Key:
[1] = test system: Botrytis cinerea; experiment: Synergistic Growth Inhibition Assay (MIC / FIC index), Botrytis cinerea; type: cell-based; settings: individual compound alone; incubation period of 48 hours
Protocol: (§1) In some embodiments, the synergistic action between the pesticidal active ingredient, and the at least one C6-C10 (or alternatively C11 or C12) saturated or unsaturated aliphatic acid components of the pesticidal compositions according to embodiments of the present disclosure was tested using a Synergistic Growth Inhibition Assay, which is derived from and related to a checkerboard assay as is known in the art for testing of combinations of antimicrobial agents. […] Thus, each well of the microtiter plate is a unique combination of the two agents, at which inhibitory efficacy of the combination against the target pest or pathogen can be determined.
(§2) In one embodiment according to the present disclosure, for each row of microtiter cells in the Synergistic Growth Inhibition Assay, the FIC index is calculated from the lowest concentration of the pesticidal active ingredient and one or more C6-C10 saturated or unsaturated aliphatic acid agents necessary to inhibit growth of a target pest or pathogen. […] The FIC index is calculated for each row as follows: […]

[2] = test system: Sclerotinia sclerotiorum; experiment: Synergistic Growth Inhibition Assay (MIC / FIC index), Sclerotinia sclerotiorum; type: cell-based; settings: individual compound alone; incubation period of 7 days
Protocol: as §1, §2

Row | SMILES | MIC (A) / MIC (B) of the compound used alone [1] | MIC (A) / MIC (B) of the compound used alone [2] [µg/mL]
1 | CCCCCCCCCCCC(=O)O [Dodecanoic acid, dodecanoic acid] | 50 µg/mL | –
2 | CCCCCCC(=O)O [Heptanoic acid, heptanoic acid] | 78.12 µg/mL and 156.2 µg/mL | 39.06
